{"sequences": {"note": "Chains of the proteins cited; added tags and fusions are not shown. Lines headed by an entry give the natural chain unless they say otherwise; changes in a name come on top.", "UniProt Q653H7": "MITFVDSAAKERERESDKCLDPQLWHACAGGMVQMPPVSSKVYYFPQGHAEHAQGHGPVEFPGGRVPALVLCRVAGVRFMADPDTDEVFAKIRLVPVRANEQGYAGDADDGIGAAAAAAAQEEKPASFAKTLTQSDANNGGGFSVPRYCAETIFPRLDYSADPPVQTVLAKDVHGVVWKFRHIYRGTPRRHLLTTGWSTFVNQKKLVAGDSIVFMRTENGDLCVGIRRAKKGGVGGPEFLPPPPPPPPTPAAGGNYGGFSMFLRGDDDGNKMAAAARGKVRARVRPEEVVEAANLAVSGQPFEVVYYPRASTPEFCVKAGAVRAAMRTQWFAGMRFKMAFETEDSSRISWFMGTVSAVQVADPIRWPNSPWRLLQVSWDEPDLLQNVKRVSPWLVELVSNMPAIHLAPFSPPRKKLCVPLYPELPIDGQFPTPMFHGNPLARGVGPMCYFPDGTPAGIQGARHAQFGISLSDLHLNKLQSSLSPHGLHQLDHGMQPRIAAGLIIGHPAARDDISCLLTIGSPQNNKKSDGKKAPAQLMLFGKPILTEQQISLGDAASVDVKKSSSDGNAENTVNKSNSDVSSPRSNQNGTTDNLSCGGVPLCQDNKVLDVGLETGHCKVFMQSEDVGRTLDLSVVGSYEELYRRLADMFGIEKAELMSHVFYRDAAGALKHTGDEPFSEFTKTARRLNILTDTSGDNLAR"}, "source": "paper PMC9457257", "note": "Construct, isoform or probe ends are uncertain for at least one entry. No signal at the amounts used counts as a negative. For some assays here: At least one verdict was read from the data and is not stated in words by the source. For some assays here: The comparison behind a weaker result is the experiment's own reference, which may not be listed here.", "data": [{"biological_target": "GST-OsARF18 (Oryza sativa (rice)) (UniProt Q653H7)", "experiment": "EMSA", "settings": "Pierce LightShift chemiluminescent EMSA kit (20148), manufacturer's protocol; pH and temperature not stated; recombinant protein; protein details: GST (N-terminal); label: 5'-biotin", "values": [{"sequence": "CAGGTCTCGTTGGTCGCCGACAACGAGGTGCGTTTGCGTGCGTGCTGATCCAAAAATGGGATGAATATCTTTGACATTC (double strand) [EA1 of Fig. 4C (AuxRE1+AuxRE2; EMSA-OsARF2-1)]", "binding result": "binds"}, {"sequence": "CAGGTCTCGTTGGTCGCCGACAACGAGGTGCGTTTGCGTGCGTGCTGATCCAAAAATGGGATGAATATCTTTGTCTTTC (double strand) [EMSA-OsARF2-2M (AuxRE2 mutated)]", "binding result": "no binding"}, {"sequence": "TGCTTCGCCTCTCTCGCTCGTCTCTCCAAACACAAACCCACCACCTCCTCCTCCTCCTCC (double strand) [ES2 (OsSUT1 promoter, SuRE2)]", "binding result": "binds"}]}, {"biological_target": "GST-OsARF18 (Oryza sativa (rice)) (UniProt Q653H7)", "experiment": "EMSA", "settings": "Pierce LightShift chemiluminescent EMSA kit (20148), manufacturer's protocol; pH and temperature not stated; recombinant protein; protein details: GST (N-terminal); label: 5'-biotin; letters put together from the description", "values": [{"sequence": "CAGGTCTCGTTGGTCGCCGTCTACGAGGTGCGTTTGCGTGCGTGCTGATCCAAAAATGGGATGAATATCTTTGACATTC (double strand) [EMSA-OsARF2-1M (AuxRE1 mutated)]", "binding result": "binds"}]}, {"system": "GST-OsARF2 (Oryza sativa (rice))", "experiment": "EMSA", "settings": "Pierce LightShift chemiluminescent EMSA kit (20148), manufacturer's protocol; pH and temperature not stated; recombinant protein; protein details: GST (N-terminal); label: 5'-biotin", "values": [{"sequence": "AAATTGTCACTGTCGCGGTACTGAATTATTCAGACAAT (double strand) [ES8 (AuxRE)]", "binding result": "no binding"}, {"sequence": "AGAAGCTCGGCAAGCGTGTCGCTAATCCGATACTAACTCC (double strand) [ES4 (AuxRE)]", "binding result": "no binding"}, {"sequence": "CAATGTCAAAACCGCGGCATCATATCTCCATTGACGT (double strand) [ES7 (AuxRE)]", "binding result": "no binding"}, {"sequence": "CTCCTCCTCCTACATCTCCGCCGCTCCTCACTTCCTCCACTCGATTTCCTTTCTTGGCC (double strand) [ES1-1A]", "binding result": "binds more weakly"}, {"sequence": "CTCCTCCTCCTACGTCACCGCCGCTCCTCACTTCCTCCACTCGATTTCCTTTCTTGGCC (double strand) [ES1-4A]", "binding result": "binds more weakly"}, {"sequence": "CTCCTCCTCCTACGTCTACGCCGCTCCTCACTTCCTCCACTCGATTTCCTTTCTTGGCC (double strand) [ES1-5A]", "binding result": "binds more weakly"}, {"sequence": "CTCCTCCTCCTACGTCTCCGCCGCTCCTCACTTCCTCCACTCGATTTCCTTTCTTGGCCT (double strand) [ES1 (OsSUT1 promoter, SuRE1)]", "binding result": "binds"}, {"sequence": "CTCCTCCTCTGACACAGGGGTGTGCAGGTTTGTGTTTGTGCGTGGCGCGTCCGCC (double strand) [ES3 (AuxRE)]", "binding result": "no binding"}, {"sequence": "CTCTGCCGCCTACGAGAGACACCCCCACCCCCCCCCCCCC (double strand) [EA2 (SuRE2 of OsARF2 promoter)]", "binding result": "binds"}, {"sequence": "TCATTTACTCCGCTGGTCTCTCTTCTCCTATTCACTC (double strand) [EA7 (SuRE7 of OsARF2 promoter)]", "binding result": "binds"}, {"sequence": "TGCTTCGCCTCTCTCGCTCGTCTCTCCAAACACAAACCCACCACCTCCTCCTCCTCCTCC (double strand) [ES2 (OsSUT1 promoter, SuRE2)]", "binding result": "binds"}, {"sequence": "TTTGGATAACTACTCGACAGTACAAACGAATTA (double strand) [ES5 (AuxRE)]", "binding result": "no binding"}]}, {"system": "GST-OsARF2 (Oryza sativa (rice))", "experiment": "EMSA", "settings": "reduced or abolished; Pierce LightShift chemiluminescent EMSA kit (20148), manufacturer's protocol; pH and temperature not stated; recombinant protein; protein details: GST (N-terminal); label: 5'-biotin", "values": [{"sequence": "CTCCTCCTCCTACCGCCGCTCCTCACTTCCTCCACTCGATTTCCTTTCTTGGCC (double strand) [ES1-Del]", "binding result": "binds more weakly"}]}]}
